The values below come from PMC4161380.

The chains behind the UniProt entries cited, without tags or fusion partners.
UniProt Q15165: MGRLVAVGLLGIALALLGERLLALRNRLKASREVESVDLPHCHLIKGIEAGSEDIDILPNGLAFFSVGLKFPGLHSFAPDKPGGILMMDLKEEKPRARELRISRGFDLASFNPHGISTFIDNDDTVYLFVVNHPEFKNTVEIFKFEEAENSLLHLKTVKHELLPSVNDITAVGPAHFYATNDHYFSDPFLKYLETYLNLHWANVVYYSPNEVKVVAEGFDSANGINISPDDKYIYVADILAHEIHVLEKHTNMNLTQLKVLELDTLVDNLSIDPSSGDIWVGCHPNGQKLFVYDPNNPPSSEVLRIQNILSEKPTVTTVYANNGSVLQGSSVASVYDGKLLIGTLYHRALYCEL
UniProt Q62086: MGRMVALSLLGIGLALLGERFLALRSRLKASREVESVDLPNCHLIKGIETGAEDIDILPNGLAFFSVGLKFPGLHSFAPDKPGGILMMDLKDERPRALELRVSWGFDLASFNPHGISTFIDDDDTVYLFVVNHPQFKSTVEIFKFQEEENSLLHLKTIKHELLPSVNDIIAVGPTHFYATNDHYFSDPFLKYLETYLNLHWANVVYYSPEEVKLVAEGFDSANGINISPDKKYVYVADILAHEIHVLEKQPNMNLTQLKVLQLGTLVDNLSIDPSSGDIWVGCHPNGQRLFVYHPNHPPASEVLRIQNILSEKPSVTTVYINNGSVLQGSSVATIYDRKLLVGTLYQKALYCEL

Results are given in words; binding and its absence hold for the method and conditions named. In cells and extracts the contact can be indirect. Some results given as binding are weak or reduced against the parent protein; the word gives no strength.

One test addresses Myc-PON2 (UniProt Q15165). Kind of test: co-IP; HEK293 cells transfected with Myc-PON2; lysate with Myc antibody overnight and TrueBlot IgG beads; Western blot with DJ-1 antibody for endogenous DJ-1. (In general: A western blot detects proteins with antibodies after separation by electrophoresis.)
Test [1] has as its target T1, DJ-1 (endogenous, murine cortical neurons) (mouse (endogenous in cortical neurons)) (UniProt Q99LX0).
T1 sequence: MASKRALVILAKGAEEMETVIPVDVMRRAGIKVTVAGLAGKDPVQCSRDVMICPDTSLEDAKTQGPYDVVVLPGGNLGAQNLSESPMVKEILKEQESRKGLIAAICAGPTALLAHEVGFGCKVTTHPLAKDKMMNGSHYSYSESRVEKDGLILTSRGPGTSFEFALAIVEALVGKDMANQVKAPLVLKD
Kind of test: co-IP; endogenous proteins in lysate of cultured murine cortical neurons; DJ-1 antibody overnight and TrueBlot IgG beads; Western blot with PON2 antibody.

For the next test, the target named is GST-DJ-1 (UniProt Q99497). Kind of test: pull-down; HEK293 cells expressing GST-DJ-1 or GST; cleared lysate (50 mM Tris HCl pH 7.5, 100 mM NaCl, 1 mM EDTA, 1 mM DTT, 0.2% NP-40) with glutathione sepharose 2-4 hours; Western blot with PON2 antibody.

Take “DJ-1 (endogenous, HEK293) (from UniProt Q99497 1-189)”: the binding entry with Myc-PON2 is listed as “binds”.
As for “Paraoxonase-2 (endogenous, murine cortical neurons) (from UniProt Q62086 1-354) (enzyme)”, the binding entry in test [1] is given as “binds”.
“Paraoxonase-2 (endogenous, HEK293) (from UniProt Q15165 1-354) (enzyme)”: in the test with GST-DJ-1, the binding result is reported as “binds”.
